Publication PMC9927378

Target: Le4759-FLAG (Lysobacter enzymogenes OH11)
Assay: pull-down; in vitro pull-down; 5 uM His-tagged protein and FLAG-tagged protein in 1.5 mL PBS, magnetic beads overnight at 4°C (anti-His beads in the methods, anti-FLAG antibody in the legend), washed with PBS with 1% Triton X-100; Western blot with anti-FLAG and anti-His; both purified

B1: CarI-His (enzyme, UniProt P33880 1-216)
chain: MLEIFDVNHTLLSETKSGELFTLRKETFKDRLNWAVQCTDGMEFDQYDNNNTTYLFGIKDNTVICSLRFIETKYPNMITGTFFPYFKEINIPEGNYLESSRFFVDKSRAKDILGNEYPISSMLFLSMINYSKDKGYDGIYTIVSHPMLTILKRSGWGIRVVEQGLSEKEERVYLVFLPVDDENQEALARRINRSGTFMSNELKQWPLRVPAAIAQA
Q: B1 was tested. Which binding did it give?
A: binds

No constants are given. Whether binding was seen depends on the method and setting. A result given as binding can be weak or reduced; the word gives no strength. Tags and fused reporters may be left off the sequences shown.
